Source: publication doi:10.1101/2025.02.13.635953
Like-named read-outs stand apart in the source and are kept apart here. Results are given in words; binding and its absence hold for the method and conditions named. Binding seen in cells or lysates may run through a third protein. These calls come from enrichment with a bait or labelling near it, and not all partners need be listed. For part of these data: A no says only that the protein was not detected with the bait. Each block holds one molecule with its values, some of them ahead of it.

The chains behind the UniProt entries cited, without tags or fusion partners. Where a name states a change or a piece, a line headed by the entry shows the natural chain unless it says otherwise.
UniProt Q8C0Y1: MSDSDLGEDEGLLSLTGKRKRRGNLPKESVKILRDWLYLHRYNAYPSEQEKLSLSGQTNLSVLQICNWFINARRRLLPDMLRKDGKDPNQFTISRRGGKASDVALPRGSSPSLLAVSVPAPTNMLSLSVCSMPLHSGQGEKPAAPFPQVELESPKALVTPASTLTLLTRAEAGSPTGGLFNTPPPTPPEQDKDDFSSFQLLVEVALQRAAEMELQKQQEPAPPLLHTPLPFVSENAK
UniProt Q62193: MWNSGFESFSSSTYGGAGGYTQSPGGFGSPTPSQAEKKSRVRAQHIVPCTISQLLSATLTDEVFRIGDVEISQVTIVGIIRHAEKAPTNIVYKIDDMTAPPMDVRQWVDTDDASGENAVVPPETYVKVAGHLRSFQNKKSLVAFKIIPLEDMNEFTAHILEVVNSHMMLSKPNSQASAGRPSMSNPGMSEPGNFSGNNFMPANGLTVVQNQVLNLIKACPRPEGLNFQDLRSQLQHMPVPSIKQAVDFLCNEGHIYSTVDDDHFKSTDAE
UniProt O09106: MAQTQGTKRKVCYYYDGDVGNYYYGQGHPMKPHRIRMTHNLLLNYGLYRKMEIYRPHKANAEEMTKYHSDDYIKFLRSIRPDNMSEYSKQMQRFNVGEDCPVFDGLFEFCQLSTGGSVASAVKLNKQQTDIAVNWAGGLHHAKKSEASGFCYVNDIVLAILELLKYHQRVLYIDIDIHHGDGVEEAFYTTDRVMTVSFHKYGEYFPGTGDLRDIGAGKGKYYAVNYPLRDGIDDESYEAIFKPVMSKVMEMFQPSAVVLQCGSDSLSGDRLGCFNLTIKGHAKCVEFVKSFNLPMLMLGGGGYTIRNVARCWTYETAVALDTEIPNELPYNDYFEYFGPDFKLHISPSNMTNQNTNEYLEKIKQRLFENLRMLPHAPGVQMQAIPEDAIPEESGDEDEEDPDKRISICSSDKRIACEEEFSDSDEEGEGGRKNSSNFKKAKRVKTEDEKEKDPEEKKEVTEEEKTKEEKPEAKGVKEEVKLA
UniProt P11103: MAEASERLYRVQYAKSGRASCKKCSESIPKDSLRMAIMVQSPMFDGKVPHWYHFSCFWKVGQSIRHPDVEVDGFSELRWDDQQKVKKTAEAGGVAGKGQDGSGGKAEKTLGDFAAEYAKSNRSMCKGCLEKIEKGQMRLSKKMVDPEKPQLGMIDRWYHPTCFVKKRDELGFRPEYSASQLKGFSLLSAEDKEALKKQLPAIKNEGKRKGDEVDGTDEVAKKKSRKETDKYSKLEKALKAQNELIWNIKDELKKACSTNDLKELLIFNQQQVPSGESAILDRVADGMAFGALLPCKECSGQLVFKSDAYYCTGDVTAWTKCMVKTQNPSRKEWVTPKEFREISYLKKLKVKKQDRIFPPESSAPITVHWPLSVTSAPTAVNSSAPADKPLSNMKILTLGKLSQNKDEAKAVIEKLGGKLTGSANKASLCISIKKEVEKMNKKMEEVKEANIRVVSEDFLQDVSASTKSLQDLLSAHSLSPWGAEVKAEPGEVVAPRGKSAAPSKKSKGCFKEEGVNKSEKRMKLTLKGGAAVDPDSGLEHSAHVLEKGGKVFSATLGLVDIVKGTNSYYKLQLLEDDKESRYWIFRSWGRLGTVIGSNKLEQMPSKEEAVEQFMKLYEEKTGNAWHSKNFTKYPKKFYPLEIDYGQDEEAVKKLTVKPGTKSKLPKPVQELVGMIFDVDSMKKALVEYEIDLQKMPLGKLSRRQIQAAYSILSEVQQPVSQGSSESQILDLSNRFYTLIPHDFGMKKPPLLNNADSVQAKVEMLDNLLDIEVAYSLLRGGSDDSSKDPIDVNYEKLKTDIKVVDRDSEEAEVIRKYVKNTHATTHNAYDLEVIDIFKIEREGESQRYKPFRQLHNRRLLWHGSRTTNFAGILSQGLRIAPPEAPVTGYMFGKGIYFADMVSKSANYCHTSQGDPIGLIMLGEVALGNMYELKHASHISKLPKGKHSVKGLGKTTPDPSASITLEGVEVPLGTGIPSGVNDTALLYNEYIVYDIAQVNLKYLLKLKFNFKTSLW
UniProt Q8VEE4: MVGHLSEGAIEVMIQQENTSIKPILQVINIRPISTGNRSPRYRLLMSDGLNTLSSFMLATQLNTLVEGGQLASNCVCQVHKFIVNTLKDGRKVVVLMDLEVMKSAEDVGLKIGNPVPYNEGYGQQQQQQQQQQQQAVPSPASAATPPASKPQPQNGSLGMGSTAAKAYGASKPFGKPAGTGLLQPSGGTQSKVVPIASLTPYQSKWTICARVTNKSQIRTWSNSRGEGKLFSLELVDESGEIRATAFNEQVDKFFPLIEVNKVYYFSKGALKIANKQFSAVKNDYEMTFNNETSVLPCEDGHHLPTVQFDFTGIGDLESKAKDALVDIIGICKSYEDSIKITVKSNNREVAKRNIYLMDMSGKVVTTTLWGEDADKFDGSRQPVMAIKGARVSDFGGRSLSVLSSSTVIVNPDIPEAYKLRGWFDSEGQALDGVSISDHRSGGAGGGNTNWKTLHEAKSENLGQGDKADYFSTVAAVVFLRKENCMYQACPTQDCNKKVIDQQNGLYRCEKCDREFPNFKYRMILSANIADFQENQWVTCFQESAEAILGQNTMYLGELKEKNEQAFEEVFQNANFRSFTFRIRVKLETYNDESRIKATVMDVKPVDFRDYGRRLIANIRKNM
UniProt Q9CQ71: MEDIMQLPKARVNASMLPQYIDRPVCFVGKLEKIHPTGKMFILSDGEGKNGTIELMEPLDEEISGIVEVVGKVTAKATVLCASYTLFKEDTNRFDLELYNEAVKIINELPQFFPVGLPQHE
UniProt P70288: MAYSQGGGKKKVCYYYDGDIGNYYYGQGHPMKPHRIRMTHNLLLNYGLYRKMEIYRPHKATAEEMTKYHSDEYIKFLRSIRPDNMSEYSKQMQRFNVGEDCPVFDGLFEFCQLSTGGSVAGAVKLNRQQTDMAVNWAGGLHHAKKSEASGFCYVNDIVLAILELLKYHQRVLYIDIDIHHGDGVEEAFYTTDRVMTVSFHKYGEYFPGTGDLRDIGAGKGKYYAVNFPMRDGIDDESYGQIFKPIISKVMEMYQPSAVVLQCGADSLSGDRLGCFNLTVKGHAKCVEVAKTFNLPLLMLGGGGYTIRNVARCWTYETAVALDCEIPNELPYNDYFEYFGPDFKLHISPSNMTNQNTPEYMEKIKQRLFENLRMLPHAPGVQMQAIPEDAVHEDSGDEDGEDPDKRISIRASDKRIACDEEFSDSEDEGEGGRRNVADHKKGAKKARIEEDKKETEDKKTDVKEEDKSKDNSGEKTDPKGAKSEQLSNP
UniProt O54962: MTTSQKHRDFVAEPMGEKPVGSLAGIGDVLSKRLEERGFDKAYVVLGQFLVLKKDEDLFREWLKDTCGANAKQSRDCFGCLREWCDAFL

Tests used:
Test in all cases: affinity purification with mass spectrometry
[1] = target: TGFB-Induced Homeobox Factor 2 (TGIF2), longer isoform with a retained intron (TGIF2IR), FLAG-tagged (UniProt Q8C0Y1)
[2] = target: TGFB-Induced Homeobox Factor 2 (TGIF2), longer isoform with a retained intron (TGIF2IR), FLAG-tagged (UniProt Q8C0Y1); remark: listed apart in the source
[3] = target: TGIF2IR with a point mutation within the SIN3A-interacting domain (A210V), TGIF2IRmut (UniProt Q8C0Y1)

binding [1]: binds
Molecule: RPA2 (from UniProt Q62193 1-270)

binding [1]: binds
Molecule: HDAC1 (from UniProt O09106 1-482)

binding [2]: binds
binding [3]: no binding
B1: ARID4B (protein, UniProt A2CG63 1-1314)
chain: MKALDEPPYLTVGTDVSAKYRGAFCEAKIKTAKRLVKVKVTFRHDSSTVEVQDDHIKGPLKVGAIVEVKNLDGAYQEAVINKLTDASWYTVVFDDGDEKTLRRSSLCLKGERHFAESETLDQLPLTNPEHFGTPVIGKKTNRGRRSNHIPEEESSSSSSDDDEEERKQTDELLGKVVCVDYVSLEKKKAMWFPALVVCPDCSDEIAVKKDNILVRSFKDGKFTSVPRKDVHEITSDTVPKPDAVLKQAFDQALEFHKSRAIPANWKTELKEDSSSSEAEEEEEEEDDEKEKEDNSSEEEEEIEPFPEERENFLQQLYKFMEDRGTPINKRPVLGYRNLNLFKLFRLVHKLGGFDNIESGAVWKQVYQDLGIPVLNSAAGYNVKCAYKKYLYGFEEYCRSANIDFQMALPEKVLNKPCKDCENKEVKVKEESETEIKEVNVEDSKNVMPKEETPAEDESERKENIKPSLGSKKSLLECIPAQSDEEKEAHITKLEENENLEDKDGGRARTEEAFSTEVDGEEEQARSGDETNKEEDEDDEEIEEEEEEDEEEDEDEDDDDNNEEEEFECYPPGMKVQVRYGRGKNQKMYEASIKDSDVEGGEALYLVHYCGWNVRYDEWIKADKIVRPADKNVPKIKHRKKIKNKLDKEKDRDEKYSPKNCKLRRLSKSPFQSNPSPEMVSKLDLADAKNSDTAHIKSIEITSILNGLQASESSAEDSEQEDERCTQDVDNIGKDESKVEHSTHSRNELISKEEQSSPSLLEENKVHTDLVIAKTVSKSPERLRKDMEAISEDTDFEEEDEITKKRKDVKKDTTDKALKPQTKRGKRRYCSADECLQTGSPGKKEDRTKSKEPLCTENSSNSSSDEDEEEKSKAKMTPTKKYNGLEEKRKSLRTTSFYSGFSEVAEKRIKLLNNSDERLQNNRAKDRKDVWSSIQGQWPKKTLKELFSDSDTEAAASPPHPAPDEGAVEESLQTVAEEESCSPIMELEKPLPASVDNKPIEEKPLEVSDRKTEFPSSGSNSVLNTPPTTPESPSSVTITEASQQQSSVTVSVPLPPNQEEVRSIKSETDSTIEVDSVVGELQDLQSEGNSSPAGFDASVSSSSSNQPEPDNPEKACTGQKRVKDTQGVGSSSKKQKRSHKATVVNNKKKGKGTNSSDSEELSAGESVTKTQTIKSVPTGMKTHNSKSPARVQSPGKGGRNGDKDPDLKEPSNRLPKVYKWSFQTSDLENMTSAERISILQEKLQEIRKHYLSLKSEVASIDRRRKRLKKKERESAATSSSSSSPSSSSITAAVMLTLAEPSMSSASQNGMSVECR

More lines, now with the values behind:

Molecule: PARP1 (from UniProt P11103 1-1013)
binding [1]: binds

Molecule: RPA1 (from UniProt Q8VEE4 1-623)
binding [1]: binds

Molecule: RPA3 (from UniProt Q9CQ71 1-121)
binding [1]: binds

Molecule: HDAC2 (from UniProt P70288 1-488)
binding [1]: binds

Molecule: BANF1 (from UniProt O54962 1-89)
binding [1]: binds
